Measurements as given in publication PMC5833746.
These are yes or no findings as the source states them, for the method shown. In cells and extracts the contact can be indirect. Some binding calls cover weakened binding; strength is not graded here.

Chains of the proteins cited; added tags and fusions are not shown.
UniProt P35222: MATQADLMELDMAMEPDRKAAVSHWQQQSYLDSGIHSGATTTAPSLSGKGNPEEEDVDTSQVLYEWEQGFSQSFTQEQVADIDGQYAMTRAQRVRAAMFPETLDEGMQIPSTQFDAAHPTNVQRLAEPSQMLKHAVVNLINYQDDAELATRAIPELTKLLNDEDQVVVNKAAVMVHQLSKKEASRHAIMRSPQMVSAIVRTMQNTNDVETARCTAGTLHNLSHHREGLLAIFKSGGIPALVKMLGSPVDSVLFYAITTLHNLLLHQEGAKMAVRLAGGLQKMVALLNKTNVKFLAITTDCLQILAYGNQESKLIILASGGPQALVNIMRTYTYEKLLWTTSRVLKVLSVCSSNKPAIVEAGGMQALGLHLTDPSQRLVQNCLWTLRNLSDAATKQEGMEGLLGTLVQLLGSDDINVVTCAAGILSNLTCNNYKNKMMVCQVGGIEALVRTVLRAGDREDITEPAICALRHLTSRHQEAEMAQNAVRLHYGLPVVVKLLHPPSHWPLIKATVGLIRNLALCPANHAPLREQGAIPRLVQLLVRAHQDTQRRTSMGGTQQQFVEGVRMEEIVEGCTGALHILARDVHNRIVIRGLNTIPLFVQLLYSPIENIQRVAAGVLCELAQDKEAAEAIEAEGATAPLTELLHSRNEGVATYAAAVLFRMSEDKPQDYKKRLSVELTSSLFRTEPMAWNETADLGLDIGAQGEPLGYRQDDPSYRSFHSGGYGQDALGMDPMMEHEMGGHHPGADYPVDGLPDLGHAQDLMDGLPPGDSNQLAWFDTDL
UniProt Q9UJU2: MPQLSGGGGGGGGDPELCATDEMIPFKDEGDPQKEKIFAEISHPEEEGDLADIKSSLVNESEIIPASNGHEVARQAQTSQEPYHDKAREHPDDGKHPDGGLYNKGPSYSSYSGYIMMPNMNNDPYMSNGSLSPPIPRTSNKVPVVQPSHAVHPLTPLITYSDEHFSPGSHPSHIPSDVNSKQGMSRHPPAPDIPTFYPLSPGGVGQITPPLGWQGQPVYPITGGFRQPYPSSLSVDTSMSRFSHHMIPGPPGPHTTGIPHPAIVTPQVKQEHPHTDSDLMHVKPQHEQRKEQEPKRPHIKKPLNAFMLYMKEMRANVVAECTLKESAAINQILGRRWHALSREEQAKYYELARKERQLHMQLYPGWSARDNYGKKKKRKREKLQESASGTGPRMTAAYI

Molecular target: β-catenin (human (endogenous in Hep3B)) (UniProt P35222)
Experiment: co-IP; Hep3B lysates (stable lines with pCMV6-A-GFP or pCMV6-A-GFP-MEG3; in Fig. 9E also MEG3 plus pGFP-V-RS-PTEN knock-down); 50 mM Tris-HCl pH 7.6, 150 mM NaCl, 1% NP40, 0.1 mM EDTA, 1.0 mM DTT; 2 µg antibody, protein G/A-plus agarose beads, 4 °C; normal IgG as negative control; Western blotting

## LEF (from UniProt Q9UJU2 1-399)
  binding: binds
